These results are taken from patent publication US8080115B2, “Method for the surface treatment of a metallic or fibrous material” (priority 2005, dated 2011).

A short description of data set [1]: Brookfield viscosity of latex with added composition. To be noted: 5.3% by weight added to latex, 20° C., 20 rpm.
Data set [2] is described as follows: Properties of the film obtained from latex with added composition. The following applies: 5.3% by weight added to latex.

Take `CO[C@H]1CO[C@H]2[C@@H]1OC[C@H]2OC` [Composition 5, dimethyl isosorbide]: the “VISC 1 (Brookfield viscosity of the latex at 1 day)” value in data set [1] (1 day) is given as 4.8 10^3 mPa·s. For the same molecule, in data set [1] (7 days), the “VISC 7 (Brookfield viscosity of the latex at 7 days)” value was 4.8 10^3 mPa·s. In addition, in data set [2] (DSC), the “TG (glass transition temperature of the film)” value is “+1.6 °C”. For the same molecule, in data set [2] (Haze-Gard Plus device), the HAZE is reported as 8.9.
